The list shows a part of the results.
Compound: CC1Cc2ccccc2N1C(=O)C1CCCN(C1)C(=O)CCl (mixture of isomers) [TRIM25 ligand 11 (diastereomer mixture)]
Experiment: probe-labelled cysteine peptide fold change vs DMSO (competition) (log2 fold change); higher = less target engagement (more negative = stronger competition)
Settings: THP-1, incubation time: 4 h
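Note: competitive chemoproteomic profiling in live THP-1 cells with an iodoacetamide desthiobiotin (IA-DTB) probe, comparing probe-labelled peptide intensities in compound-treated cells against DMSO-treated controls.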

Target	probe-labelled cysteine peptide fold change (10 µM)	probe-labelled cysteine peptide fold change (50 µM)
SMC2_O95347_132_VQDLFCSVGLNVNNPHFLIMQGR (UniProt O95347)	0.0533	0.0291
SMARCA2_P51531_399_QLRQEVVACMR (UniProt P51531)	-0.116	-0.0635
SNRNP200_O75643_576_RLATYGITVAELTGDHQLCK (UniProt O75643)	-0.0593	0.102
SND1_Q7KZF4_826+837_DIQNTQCLLNVEHLSAGCPHVTLQFADSK (UniProt Q7KZF4)	0.107	-0.183
SLFN11_Q7Z7L1_791_YLTVEQIMTCVADTCRR (UniProt Q7Z7L1)	-0.077	-0.171
SMARCA5_O60264_283_DVLLPGEWDVCVTSYEMLIK (UniProt O60264)	0.253	-0.148
SMC5_Q8IY18_582_ELFDAPDPVMSYLCCQYHIHEVPVGTEK (UniProt Q8IY18)	0.00685	0.367
SMARCA2_P51531_968_CDMSALQK (UniProt P51531)	0.0315	0.0598
SMARCC1_Q92922_845_ELTDTCK (UniProt Q92922)	-0.0769	-0.154
SLC44A1_Q8WWI5_98_KYVFFLDPCNLDLINR (UniProt Q8WWI5)	-0.0959	0.0613
SMN2_Q16637_98_CSAIWSEDGCIYPATIASIDFK (UniProt Q16637)	0.0396	0.0711
SMG9_Q9H0W8_380_EDFCPR (UniProt Q9H0W8)	-0.111	-0.454
SMC5_Q8IY18_176_VAALNIQVGNLCQFLPQDK (UniProt Q8IY18)	-0.0763	0.0894
SLC2A9_Q9NRM0_36_ALLECDHLR (UniProt Q9NRM0)	-0.0472	-0.18
SNRNP48_Q6IEG0_26_LQEELNEFVESGCR (UniProt Q6IEG0)	0.00655	-0.0667
SMS_P52788_256_TCGDVLDNLKGDCYQVLIEDCIPVLKR (UniProt P52788)	-0.302	-0.139
SNRNP200_O75643_1127_RMWQSMCPLR (UniProt O75643)	-0.0203	0.0949
SMCHD1_A6NHR9_84_EITCDNFDETVK (UniProt A6NHR9)	-0.00484	-0.0181
SMAD4_Q13485_363_FCLGQLSNVHR (UniProt Q13485)	0.191	0.253

Target	probe-labelled cysteine peptide fold change (10 µM)	probe-labelled cysteine peptide fold change (50 µM)
SMYD4_Q8IYR2_501_HMLQLQCNAQAMTTIQHTGPK (UniProt Q8IYR2)	-0.0139	0.123
SMARCC2_Q8TAQ2_91_AGGSLCHILAAAYK (UniProt Q8TAQ2)	0.0152	-0.0673
SMS_P52788_206_DVLILGGGDGGILCEIVK (UniProt P52788)	-0.115	-0.0163
SMARCC1_Q92922_761_VDPTYGLESSCIAGTGPDEPEKLEGAEEEK (UniProt Q92922)	-0.397	-0.234
SLC39A10_Q9ULF5_598_NYLCIEEEK (UniProt Q9ULF5)	-0.116	-0.158
SLK_Q9H2G2_1212_MTGESECLNPSTQSR (UniProt Q9H2G2)	-0.113	-0.264
SMU1_Q2TAY7_219_SHVECAR (UniProt Q2TAY7)	0.194	0.11
SMARCAD1_Q9H4L7_741_IELCAMSEK (UniProt Q9H4L7)	-0.0382	0.0471
SLU7_O95391_455_YSYCTGEAGK (UniProt O95391)	0.0886	0.134
SLFN13_Q68D06_884_TADPAILPNILICLASR (UniProt Q68D06)	0.134	-0.00266
SNRNP200_O75643_1471_KNVQNINLFVVDEVHLIGGENGPVLEVICSR (UniProt O75643)	0.0797	0.107
SLC27A2_O14975_414_DEPVRDENGYCVR (UniProt O14975)	0.0377	-0.0613
SND1_Q7KZF4_152_LSECEEQAK (UniProt Q7KZF4)	-0.0482	-0.131
SMC1A_Q14683_1210_AESLIGVYPEQGDCVISK (UniProt Q14683)	-0.0856	0.0393
SNRNP200_O75643_1115_TLNLCK (UniProt O75643)	0.00507	0.109
SMG7_Q92540_537_NLSNNCDTGEK (UniProt Q92540)	0.347	0.0605
SMS_P52788_229_MVTMVEIDQMVIDGCKK (UniProt P52788)	-0.384	-0.175
SLC35B1_P78383_119_SCKPIPVMLLGVTLLK (UniProt P78383)	-0.942	0.0401
SMS_P52788_237_TCGDVLDNLK (UniProt P52788)	-0.0498	-0.0527
